Experimental data as given in US9421203B2, “Sensitization of cancer cells to DNA damage by inhibiting kinases essential for DNA damage checkpoint control” (Institute for Cancer Research, priority 2012, dated 2016).
At least one structure is not confirmed: it was looked up by name or label, or the drawing left a doubt.

Key:
[1] = system: PANC1 cells; assay: Time-lapse video-microscopy of checkpoint override (premature mitosis) in PANC1 cells; assay type: cell-based; conditions: gemcitabine 24 h, then inhibitor 1 μM (UCN-01 100 nM), time-lapse 24 hours
Method: PANC1 cells were treated with gemcitabine for 24 hours before the addition of kinase inhibitors (1 μM), and filming commenced thereafter.
Time-lapse video microscopy was used to document the fates of cells treated with gemcitabine with and without the Chk1 inhibitor, UCN-01 (FIG. 3).

[2] = system: PANC1 cells; assay type: cell-based; conditions: gemcitabine 10 nM 24 h, then inhibitor 1 μM for 48 h (FIG. 1A)
Method: FIGS. 7A-7D show the viability of PANC1 cells treated with increasing concentrations of (FIG. 7A) doxorubicin or (FIG. 7B) cisplatin (24 h) before the addition of UCN-01 (100 nM) or Bos-I (1000 nM) for a further 48 hours.
Identification of clinically relevant kinase inhibitors that sensitize cells to gemcitabine. In the experiments described in this Example, the general protocol was to treat pancreatic cancer cell line (Panc-1) with a dose of gemcitabine that induces DNA damage and arrests cell cycle progression. A panel of nine different clinically relevant kinase inhibitors (FIG. 1A) were added to gemcitabine treated cells, and were assessed for their ability to enhance killing of pancreatic cancer cells to gemcitabine. PANC1 cells were treated with a sub-lethal (IC20) concentration of gemcitabine (10 nM) for 24 hours (a time and concentration sufficient to induce DNA damage and S phase arrest) and kinase inhibitors (all at 1 μM final) were added for another 48 h before cell viability was measured. UCN-01, a Chk1 inhibitor that is established as a sensitizer of gemcitabine was included as a positive control.

[3] = system: 300 recombinant human protein kinases; conditions: of 300 recombinant human kinases; database / Anastassiadis 2011; cited from earlier work
[4] = system: PANC1 cells; assay type: cell-based; conditions: PANC1, inhibitor at 2.5 μM and 5 μM (FIG. 7C)
[5] = system: Tyr15 phosphorylation of Cdc2; assay: Tyr15 phosphorylation of Cdc2 in gemcitabine treated PANC1 cells; assay type: cell-based; conditions: PANC1 cells treated with gemcitabine
Description: Inhibition of Tyr15 phosphorylation was not observed for dasatnib, which is fully consistent with its in vitro kinase profile, and its inability to override the DNA damage checkpoint.

Row | Structure (SMILES) | checkpoint override / premature entry into mitosis [1] | viability of gemcitabine treated PANC1 cells [2] | checkpoint override / premature entry into mitosis ([1]; listed as Dovitinib) | number of kinases inhibited by more than 50% [3] | sensitization of PANC1 cells to gemcitabine at higher concentrations [4] | Tyr15 phosphorylation of Cdc2 [5]
1 | CCN(CC)CCNC(=O)c1c(C)[nH]c(/C=C2\C(=O)Nc3ccc(F)cc32)c1C [sunitinib] | did not override the gemcitabine induced S phase arrest | – | – | – | – | –
2 | CN1CCN(c2ccc3nc(-c4c(N)c5c(F)cccc5[nH]c4=O)[nH]c3c2)CC1 [dovitinib] | able to override the checkpoint and force cells into premature mitosis | significantly reduced viability of cells treated with gemcitabine | very modest ability to induce checkpoint override | – | – | –
3 | Cc1nc(Nc2ncc(C(=O)Nc3c(C)cccc3Cl)s2)cc(N2CCN(CCO)CC2)n1 [dasatinib] | – | – | – | 50/300 | did not enhance killing by gemcitabine | not observed
